Patent US12310368B2, “Method for the prophylactic treatment of a food product” (Solvay SA, priority 2018, dated 2025)
Where two headings read alike, the source gives them in different places.

Details: 200 ppm dosage

## O=C([O-])O.[Na+] [sodium bicarbonate]
After passage in separator cleaner, Sample 3 cell bottom
  measured quantity of sodium bicarbonate in wheat grains: 134 ppm
After passage in separator cleaner, Sample 4 middle of cell
  measured quantity of sodium bicarbonate in wheat grains: 142 ppm
After passage in separator cleaner, Sample 9 top of cell
  measured quantity of sodium bicarbonate in wheat grains: 149 ppm
Exit of cell before separator cleaner, Sample 1 cell bottom
  measured quantity of sodium bicarbonate in wheat grains: 202 ppm
Exit of cell before separator cleaner, Sample 2 middle of cell
  measured quantity of sodium bicarbonate in wheat grains: 199 ppm
Exit of cell before separator cleaner, Sample 8 cell top
  measured quantity of sodium bicarbonate in wheat grains: 202 ppm
